Measured values as given in US7495088B1, “Modified nucleotide compounds” (Enzo Life Sciences, Inc., priority 1989, dated 2009).
Negatives hold for the conditions tested. Protein sequences can lack the tags named with them. Construct, isoform or probe ends are uncertain for at least one entry.

Molecular target: T1, RNase H (Escherichia coli) (UniProt P0A7Y4)
T1 sequence (looked up, limits assumed): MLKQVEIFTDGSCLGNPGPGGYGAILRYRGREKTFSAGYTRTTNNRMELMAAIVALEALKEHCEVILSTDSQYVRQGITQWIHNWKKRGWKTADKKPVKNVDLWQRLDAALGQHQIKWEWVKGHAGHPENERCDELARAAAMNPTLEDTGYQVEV
Experiment: enzyme reaction in vitro
Conditions: purified recombinant protein, protein details: BRL, DNA:RNA hybrid

**Q.** For “CTGGGGCTGCAT [12-Me5a-1 : ALA-D RNA hybrid]”, which “activity on this sequence” value (3' methylphosphonate linkage at positions 3,4,7,9,11, most of RNA cleaved, label: 32P RNA, variant of 12-P-1 : ALA-D RNA hybrid) is on record?
**A.** The value was “active”.

**Q.** With “TGACTTAGCTGCAT [14-A-3 : ALA-D RNA hybrid]” as the sequence, how does the “activity on this sequence” value (3' methylphosphonate linkage at A3,A7,A13, RNase H substrate, cleavage incomplete, label: 32P RNA, variant of 14-P-3 : ALA-D RNA …) read?
**A.** Its value is “active”.

**Q.** With “TGACTTAGCTGCAT [14-C-3 : ALA-D RNA hybrid]” as the sequence, how does the “activity on this sequence” value (3' methylphosphonate linkage at C4,C9,C12, RNase H substrate, cleavage incomplete, label: 32P RNA, variant of 14-P-3 : ALA-D RNA …) read?
**A.** The value was “active”.

**Q.** Which “activity on this sequence” value (3' methylphosphonate linkage at positions 2,4,6,10,12, RNase H substrate, cleavage incomplete, label: 32P RNA, variant of 14-P-3 : ALA-D RNA …) does the source give for “TGACTTAGCTGCAT [14-Me5a-3 : ALA-D RNA hybrid]” here?
**A.** The value was “active”.

**Q.** For “TGACTTAGCTGCAT [14-Me5b-3 : ALA-D RNA hybrid]”, which “activity on this sequence” value (3' methylphosphonate linkage at positions 2,4,6,8,13, RNase H substrate, cleavage incomplete, label: 32P …, variant of 14-P-3 : ALA-D RNA hybrid) is on record?
**A.** Its value is “active”.

**Q.** For “TGACTTAGCTGCAT [14-Me6a-3 : ALA-D RNA hybrid]”, which “activity on this sequence” value (3' methylphosphonate linkage at positions 2,4,6,8,10,12, not a substrate up to 10 ug/ml, label: 32P RNA, variant of 14-P-3 : ALA-D RNA hybrid) is on record?
**A.** Its value is “not active”.

**Q.** “TGGGGCTGCATG [12-Me4-1 : ALA-D RNA hybrid]” was tested. Which “activity on this sequence” value (3' methylphosphonate linkage at positions 2,6,8,10, most of RNA cleaved, label: 32P RNA, variant of 12-P-1 : ALA-D RNA hybrid) did it give?
**A.** Its value is “active”.

**Q.** For “TGGGGCTGCATG [12-Me5-1 : ALA-D RNA hybrid]”, which “activity on this sequence” value (3' methylphosphonate linkage at positions 2,4,6,8,10, not an RNase H substrate, label: 32P RNA, variant of 12-P-1 : ALA-D RNA hybrid) is on record?
**A.** The value was “not active”.

**Q.** How did the “activity on this sequence” value (3' methylphosphonate linkage at positions 2,5,7,9,11, not an RNase H substrate, label: 32P RNA, variant of 12-P-1 : ALA-D RNA hybrid) turn out when “TGGGGCTGCATG [12-Me5b-1 : ALA-D RNA hybrid]” was run?
**A.** Its value is “not active”.

**Q.** How did the “activity on this sequence” value (3' methylphosphonate linkage at positions 2-11, not an RNase H substrate, label: 32P RNA, variant of 12-P-1 : ALA-D RNA hybrid) turn out when “TGGGGCTGCATG [12-Me10-1 : ALA-D RNA hybrid]” was run?
**A.** The value was “not active”.
